The list shows only some results of the screen, not a fair sample: it is rich in T/C values a quarter to a half above the control, in often repeated tests (any T/C) and in doses without a T/C. Further doses and runs are listed elsewhere. T/C is the treated group as % of the vehicle group. Some entries give survivors of the animals treated and no T/C: the source holds a T/C of zero for them, seemingly a mark for toxic or unscored doses. Some doses without a T/C left all or most animals alive at the check, yet need not have been tolerated: the source hardly ever lists a survival T/C far under the control, and the zero likely stands for such cases as well. Counts of survivors are from the toxicity check (mostly the fifth day) where no day follows; animals may have died later. Schedules are NCI's codes, taken here to give the interval after Q, in days (D) or hours (H), and the number of doses after X. Some schedule codes hold Z or #, which are not explained here. Some structures stand for samples that the source files as different forms (salt, stereo form or complex); doses refer to the form tested. For survival time, this PubChem deposit counts one and a half times the control or more as active, and values a quarter to a half above the control carry no call in these data; other NCI protocols may use other cut-offs.
Tested on: L1210 leukemia ip in BDF1 mice, survival T/C
Assay: NCI In Vivo Anticancer Drug Screen. Data for tumor model L1210 Leukemia (intraperitoneal) in B6D2F1 (BDF1) mice
Conditions: T/C endpoint: mean survival time, higher T/C = longer survival
[1] = dose: 80.0 mg/kg/injection, schedule: Q04DX003 (ip), vehicle: Klucel (hydroxypropylcellulose) (HPC)
[2] = dose: 100.0 mg/kg/injection, schedule: Q04DX003 (ip), vehicle: Klucel (hydroxypropylcellulose) (HPC)
[3] = dose: 200.0 mg/kg/injection, schedule: Q04DX003 (ip), vehicle: Klucel (hydroxypropylcellulose) (HPC)
[4] = dose: 400.0 mg/kg/injection, schedule: Q04DX003 (ip), vehicle: Klucel (hydroxypropylcellulose) (HPC)
[5] = dose: 400.0 mg/kg/injection, schedule: Q01DX001 (ip), vehicle: carboxymethylcellulose (CMC)
[6] = dose: 400.0 mg/kg/injection, schedule: Q01DX001 (ip), vehicle: saline
[7] = dose: 200.0 mg/kg/injection, schedule: Q01DX009 (ip), vehicle: saline with Tween-80
[8] = dose: 400.0 mg/kg/injection, schedule: Q04DX003 (ip), vehicle: saline with Tween-80
[9] = dose: 400.0 mg/kg/injection, schedule: Q01DX001 (ip), vehicle: Klucel (hydroxypropylcellulose) (HPC)
[10] = dose: 300.0 mg/kg/injection, schedule: Q01DX001 (ip), vehicle: other
[11] = dose: 400.0 mg/kg/injection, schedule: Q01DX009 (ip), vehicle: saline with Tween-80
[12] = dose: 400.0 mg/kg/injection, schedule: Q04DX003 (ip), vehicle: saline
[13] = dose: 400.0 mg/kg/injection, schedule: Q01DX009 (ip), vehicle: Klucel (hydroxypropylcellulose) (HPC)

`CCC1CN2C(=N1)c1ccccc1-c1cc(Br)ccc12` (stereo not given) was tested, and the survivor count (dose: 20.0 mg/kg/injection, schedule: Q04DX003 (ip), vehicle: Klucel (hydroxypropylcellulose) (HPC)) was 6 of 6, the survivor count (dose: 40.0 mg/kg/injection, schedule: Q04DX003 (ip), vehicle: Klucel (hydroxypropylcellulose) (HPC)) was 6 of 6 and the survivor count [1] was 2 of 6. For the same compound, the survivor count [2] was 4 of 6, the survivor count [3] was 0 of 6 and the survivor count [4] was 0 of 6.
`CC1=C(O)C(=O)C=C2C1=CC=C1[C@@]2(C)CC[C@@]2(C)[C@@H]3C[C@](C)(C(=O)O)CC[C@]3(C)CC[C@]12C` was tested, and the survivor count (dose: 40.0 mg/kg/injection, schedule: Q01DX001 (ip), vehicle: carboxymethylcellulose (CMC)) was 0 of 4, the survivor count (dose: 50.0 mg/kg/injection, schedule: Q01DX001 (ip), vehicle: carboxymethylcellulose (CMC)) was 0 of 6 and the survivor count (dose: 80.0 mg/kg/injection, schedule: Q01DX001 (ip), vehicle: carboxymethylcellulose (CMC)) was 0 of 4. The survivor count (dose: 100.0 mg/kg/injection, schedule: Q01DX001 (ip), vehicle: carboxymethylcellulose (CMC)) was 0 of 6, the survivor count (dose: 200.0 mg/kg/injection, schedule: Q01DX001 (ip), vehicle: carboxymethylcellulose (CMC)) was 0 of 6 and the survivor count [5] was 0 of 6.
`NC(=S)N/N=C/c1ccc(O)c(C(=O)O)c1` was tested, and the survivor count (dose: 500.0 mg/kg/injection, schedule: Q01DX Z (ip), vehicle: methylcellulose (MC)) was 6 of 6.
In the case of `O=C(c1ccc(C(=O)N(C2CCCCC2)C2CCCCC2)cc1)N(C1CCCCC1)C1CCCCC1`, the survivor count (dose: 100.0 mg/kg/injection, schedule: Q01DX001 (ip), vehicle: saline) is reported as 1 of 6, the survivor count (dose: 200.0 mg/kg/injection, schedule: Q01DX001 (ip), vehicle: saline) is reported as 0 of 6 and the survivor count [6] is reported as 0 of 6.
In the case of `O=[n+]1ccn2cc3ccccc3cc2c1`, the survivor count (dose: 25.0 mg/kg/injection, schedule: Q01DX009 (ip), vehicle: saline with Tween-80) is reported as 2 of 6 and the survivor count (dose: 50.0 mg/kg/injection, schedule: Q01DX009 (ip), vehicle: saline with Tween-80) is reported as 3 of 6.
`CC(=O)C1C(=O)OC(C)=C(C(=O)O)C1=O` (stereo not given) was tested, and the survivor count [7] was 2 of 6 and the survivor count [8] was 0 of 6.
With `COC(=O)c1[nH]cnc1/N=N/N(C)CCO` the T/C (dose: 177.0 mg/kg/injection, schedule: Q01DX015 (ip), vehicle: saline) was 125 % of control, the T/C (dose: 266.0 mg/kg/injection, schedule: Q01DX015 (ip), vehicle: saline) was 138 % of control and the T/C (dose: 400.0 mg/kg/injection, schedule: Q01DX015 (ip), vehicle: saline) was 146 % of control.
For `Nc1ccc2cc(S(=O)(=O)O)cc(S(=O)(=O)O)c2c1`, the survivor count (dose: 400.0 mg/kg/injection, schedule: Q04DX002 (ip), vehicle: saline) was 0 of 3.
`ClC1(Cl)C2CC3C4C=CC(C4)C3C21` (stereo not given) was tested, and the survivor count [9] was 1 of 6.
In the case of `Cc1cc(=O)[nH]c(N2CCOCC2)n1`, the survivor count [6] is reported as 2 of 4.
In the case of `CCCC(C)NNC(C)CCC` (stereo not given), the survivor count (dose: 150.0 mg/kg/injection, schedule: Q01DX001 (ip), vehicle: other) is reported as 3 of 6, the survivor count (dose: 300.0 mg/kg/injection, schedule: Q01DX001 (ip), vehicle: acetone) is reported as 2 of 6 and the survivor count [10] is reported as 2 of 6.
In the case of `O=C(O)c1[nH]c(=O)[nH]c(=O)c1F.[Ga]`, the T/C (dose: 36.0 mg/kg/injection, schedule: Q01DX001 (ip), vehicle: saline with Tween-80) is reported as 128 % of control, the T/C (dose: 54.0 mg/kg/injection, schedule: Q01DX001 (ip), vehicle: saline with Tween-80) is reported as 142 % of control and the T/C (dose: 80.0 mg/kg/injection, schedule: Q01DX001 (ip), vehicle: saline with Tween-80) is reported as 136 % of control. For the same compound, the T/C (dose: 100.0 mg/kg/injection, schedule: Q01DX001 (ip), vehicle: saline with Tween-80) was 141 % of control, the survivor count (dose: 100.0 mg/kg/injection, schedule: Q01DX009 (ip), vehicle: saline with Tween-80) was 6 of 6 and the T/C (dose: 118.0 mg/kg/injection, schedule: Q01DX001 (ip), vehicle: saline with Tween-80) was 142 % of control. The survivor count [7] was 4 of 6, the survivor count (dose: 266.0 mg/kg/injection, schedule: Q01DX001 (ip), vehicle: saline with Tween-80) was 3 of 6 and the survivor count (dose: 400.0 mg/kg/injection, schedule: Q01DX001 (ip), vehicle: saline with Tween-80) was 0 of 6. The survivor count [11] was 0 of 6, the survivor count [8] was 2 of 6 and the survivor count (dose: 600.0 mg/kg/injection, schedule: Q01DX001 (ip), vehicle: saline with Tween-80) was 0 of 6.
`CCN(CC)CC(=O)N1Cc2ccccc2Cc2ccccc2C1` was tested, and the survivor count [2] was 0 of 3, the survivor count [3] was 0 of 6 and the survivor count [4] was 0 of 6.
For `CCOC(=O)NNc1ccccc1`, the survivor count [6] was 3 of 6.
In the case of `CCCOP(OCCC)OCCC`, the survivor count [12] is reported as 1 of 6.
In the case of `C1=NN=C2C=C3CCc4ccccc4C3CC12` (stereo not given), the survivor count (dose: 400.0 mg/kg/injection, schedule: Q01DX001 (ip), vehicle: acetone) is reported as 0 of 6.
With `CCCCCCCCCCCCCCCCNS(=O)(=O)c1ccc(NN)cc1` the survivor count [4] was 6 of 6.
For `CS(=O)(=O)OCCN(CCOS(C)(=O)=O)c1ccc(C=Nc2ccc3ccccc3c2)cc1`, the T/C (dose: 53.3 mg/kg/injection, schedule: Q04DX003 (ip), vehicle: Klucel (hydroxypropylcellulose) (HPC)) was 142 % of control, the T/C [1] was 138 % of control and the survivor count [3] was 5 of 6. The survivor count [4] was 6 of 6.
`C[N+](C)(C)CC1(COC(=O)C(O)(c2ccccc2)c2ccccc2)CC1` was tested, and the survivor count (dose: 200.0 mg/kg/injection, schedule: Q01DX001 (ip), vehicle: Klucel (hydroxypropylcellulose) (HPC)) was 0 of 6 and the survivor count [9] was 0 of 6.
For `O=C1NN(c2ccccc2)CCO1`, the survivor count [13] was 0 of 6.
For `Cc1ccc(NC(=O)c2ccc([N+](=O)[O-])cc2)cc1Cl`, the survivor count (dose: 100.0 mg/kg/injection, schedule: Q01DX009 (ip), vehicle: Klucel (hydroxypropylcellulose) (HPC)) was 6 of 6, the survivor count (dose: 200.0 mg/kg/injection, schedule: Q01DX009 (ip), vehicle: Klucel (hydroxypropylcellulose) (HPC)) was 6 of 6 and the survivor count [13] was 6 of 6.
With `CN(C)CNC=O` the survivor count (dose: 200.0 mg/kg/injection, schedule: Q01DX009 (ip), vehicle: saline) was 6 of 6 and the survivor count (dose: 400.0 mg/kg/injection, schedule: Q01DX009 (ip), vehicle: saline) was 5 of 6.
For `CCCCOC(=S)SSC(=S)OCCCC`, the survivor count [7] was 2 of 6 and the survivor count [11] was 0 of 6.
In the case of `CCOC(=O)c1ccc(C(=O)O)[n+]([O-])c1`, the survivor count [13] is reported as 5 of 6.
With `C[CH2][Sn]([CH2]C)([CH2]C)[NH]S(=O)(=O)c1ccc(C)cc1` the survivor count (dose: 6.25 mg/kg/injection, schedule: Q01DX009 (ip), vehicle: saline with Tween-80) was 6 of 6, the survivor count (dose: 12.5 mg/kg/injection, schedule: Q01DX009 (ip), vehicle: saline with Tween-80) was 0 of 6 and the survivor count (dose: 25.0 mg/kg/injection, schedule: Q04DX003 (ip), vehicle: saline) was 1 of 6. For the same compound, the survivor count (dose: 50.0 mg/kg/injection, schedule: Q04DX003 (ip), vehicle: saline) was 0 of 6, the survivor count (dose: 100.0 mg/kg/injection, schedule: Q04DX003 (ip), vehicle: saline) was 0 of 6 and the survivor count (dose: 200.0 mg/kg/injection, schedule: Q04DX003 (ip), vehicle: saline) was 0 of 6. For the same compound, the survivor count [12] was 0 of 6.
`C[N+]1(C)C2CCCC1CC(=O)C2` was tested, and the survivor count (dose: 75.0 mg/kg/injection, schedule: Q01DX001 (ip), vehicle: saline) was 0 of 6, the survivor count (dose: 150.0 mg/kg/injection, schedule: Q01DX001 (ip), vehicle: saline) was 0 of 6 and the survivor count (dose: 300.0 mg/kg/injection, schedule: Q01DX001 (ip), vehicle: saline) was 0 of 6.
With `NNc1ccccc1Cl` the survivor count [10] was 0 of 6 and the survivor count [5] was 0 of 4.

— PubChem BioAssay AID248 (DTP/NCI, 2004)
